Measurements from the supplement of paper PMC11732987, “Enantioselective OTUD7B fragment discovery through chemoproteomics screening and high-throughput optimisation” (Communications Chemistry, 2025).
This is one part of the list. The data scatter; read single values as rough.

The chains behind the UniProt entries cited, without tags or fusion partners. Where a name states a change or a piece, a line headed by the entry shows the natural chain unless it says otherwise. Residues count along the entry.
UniProt Q8WY36, 574-601: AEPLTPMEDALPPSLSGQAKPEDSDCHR
UniProt Q99933: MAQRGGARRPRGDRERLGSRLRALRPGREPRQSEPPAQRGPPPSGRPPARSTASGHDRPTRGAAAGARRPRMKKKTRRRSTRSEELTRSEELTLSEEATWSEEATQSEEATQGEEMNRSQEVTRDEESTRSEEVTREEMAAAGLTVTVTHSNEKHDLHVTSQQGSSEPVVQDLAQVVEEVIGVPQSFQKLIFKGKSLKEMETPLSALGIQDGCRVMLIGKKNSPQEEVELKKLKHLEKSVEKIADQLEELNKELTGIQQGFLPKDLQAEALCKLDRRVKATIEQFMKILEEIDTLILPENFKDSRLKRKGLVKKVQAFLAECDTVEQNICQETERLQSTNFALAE
UniProt P16615: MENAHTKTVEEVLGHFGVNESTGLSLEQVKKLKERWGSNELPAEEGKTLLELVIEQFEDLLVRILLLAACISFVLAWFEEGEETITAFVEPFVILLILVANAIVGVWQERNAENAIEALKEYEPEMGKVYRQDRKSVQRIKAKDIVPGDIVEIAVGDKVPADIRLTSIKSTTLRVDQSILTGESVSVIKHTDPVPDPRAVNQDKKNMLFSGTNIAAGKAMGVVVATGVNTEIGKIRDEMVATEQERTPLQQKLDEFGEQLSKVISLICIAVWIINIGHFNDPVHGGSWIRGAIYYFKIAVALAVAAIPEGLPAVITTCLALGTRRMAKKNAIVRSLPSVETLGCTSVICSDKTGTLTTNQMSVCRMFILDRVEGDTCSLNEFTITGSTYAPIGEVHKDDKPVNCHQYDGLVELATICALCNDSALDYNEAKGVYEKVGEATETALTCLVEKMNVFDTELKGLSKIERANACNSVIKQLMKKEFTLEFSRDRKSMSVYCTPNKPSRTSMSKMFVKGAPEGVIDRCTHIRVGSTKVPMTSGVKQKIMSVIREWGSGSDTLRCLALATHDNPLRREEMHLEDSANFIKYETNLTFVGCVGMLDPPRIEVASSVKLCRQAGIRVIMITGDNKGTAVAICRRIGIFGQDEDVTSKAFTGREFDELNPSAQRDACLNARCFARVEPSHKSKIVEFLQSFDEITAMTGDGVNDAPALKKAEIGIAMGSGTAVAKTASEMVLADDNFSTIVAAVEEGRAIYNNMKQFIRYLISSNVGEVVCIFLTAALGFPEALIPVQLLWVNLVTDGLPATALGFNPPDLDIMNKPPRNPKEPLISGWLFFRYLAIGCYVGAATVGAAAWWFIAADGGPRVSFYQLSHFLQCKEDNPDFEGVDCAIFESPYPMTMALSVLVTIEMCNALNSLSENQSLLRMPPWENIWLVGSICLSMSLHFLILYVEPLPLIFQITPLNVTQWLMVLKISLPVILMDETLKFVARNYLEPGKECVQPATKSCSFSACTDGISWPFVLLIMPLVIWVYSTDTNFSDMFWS
UniProt Q9H6S1: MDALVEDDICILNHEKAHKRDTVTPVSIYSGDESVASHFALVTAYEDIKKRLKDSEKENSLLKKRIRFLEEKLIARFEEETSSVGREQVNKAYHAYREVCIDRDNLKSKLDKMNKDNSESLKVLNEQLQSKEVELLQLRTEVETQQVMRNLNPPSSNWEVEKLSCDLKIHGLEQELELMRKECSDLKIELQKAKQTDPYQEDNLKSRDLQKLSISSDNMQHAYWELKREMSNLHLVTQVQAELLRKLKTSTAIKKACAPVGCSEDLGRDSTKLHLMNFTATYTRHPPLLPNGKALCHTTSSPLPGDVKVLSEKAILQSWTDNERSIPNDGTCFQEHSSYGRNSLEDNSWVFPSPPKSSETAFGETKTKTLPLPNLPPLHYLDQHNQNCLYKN
UniProt Q96QE3: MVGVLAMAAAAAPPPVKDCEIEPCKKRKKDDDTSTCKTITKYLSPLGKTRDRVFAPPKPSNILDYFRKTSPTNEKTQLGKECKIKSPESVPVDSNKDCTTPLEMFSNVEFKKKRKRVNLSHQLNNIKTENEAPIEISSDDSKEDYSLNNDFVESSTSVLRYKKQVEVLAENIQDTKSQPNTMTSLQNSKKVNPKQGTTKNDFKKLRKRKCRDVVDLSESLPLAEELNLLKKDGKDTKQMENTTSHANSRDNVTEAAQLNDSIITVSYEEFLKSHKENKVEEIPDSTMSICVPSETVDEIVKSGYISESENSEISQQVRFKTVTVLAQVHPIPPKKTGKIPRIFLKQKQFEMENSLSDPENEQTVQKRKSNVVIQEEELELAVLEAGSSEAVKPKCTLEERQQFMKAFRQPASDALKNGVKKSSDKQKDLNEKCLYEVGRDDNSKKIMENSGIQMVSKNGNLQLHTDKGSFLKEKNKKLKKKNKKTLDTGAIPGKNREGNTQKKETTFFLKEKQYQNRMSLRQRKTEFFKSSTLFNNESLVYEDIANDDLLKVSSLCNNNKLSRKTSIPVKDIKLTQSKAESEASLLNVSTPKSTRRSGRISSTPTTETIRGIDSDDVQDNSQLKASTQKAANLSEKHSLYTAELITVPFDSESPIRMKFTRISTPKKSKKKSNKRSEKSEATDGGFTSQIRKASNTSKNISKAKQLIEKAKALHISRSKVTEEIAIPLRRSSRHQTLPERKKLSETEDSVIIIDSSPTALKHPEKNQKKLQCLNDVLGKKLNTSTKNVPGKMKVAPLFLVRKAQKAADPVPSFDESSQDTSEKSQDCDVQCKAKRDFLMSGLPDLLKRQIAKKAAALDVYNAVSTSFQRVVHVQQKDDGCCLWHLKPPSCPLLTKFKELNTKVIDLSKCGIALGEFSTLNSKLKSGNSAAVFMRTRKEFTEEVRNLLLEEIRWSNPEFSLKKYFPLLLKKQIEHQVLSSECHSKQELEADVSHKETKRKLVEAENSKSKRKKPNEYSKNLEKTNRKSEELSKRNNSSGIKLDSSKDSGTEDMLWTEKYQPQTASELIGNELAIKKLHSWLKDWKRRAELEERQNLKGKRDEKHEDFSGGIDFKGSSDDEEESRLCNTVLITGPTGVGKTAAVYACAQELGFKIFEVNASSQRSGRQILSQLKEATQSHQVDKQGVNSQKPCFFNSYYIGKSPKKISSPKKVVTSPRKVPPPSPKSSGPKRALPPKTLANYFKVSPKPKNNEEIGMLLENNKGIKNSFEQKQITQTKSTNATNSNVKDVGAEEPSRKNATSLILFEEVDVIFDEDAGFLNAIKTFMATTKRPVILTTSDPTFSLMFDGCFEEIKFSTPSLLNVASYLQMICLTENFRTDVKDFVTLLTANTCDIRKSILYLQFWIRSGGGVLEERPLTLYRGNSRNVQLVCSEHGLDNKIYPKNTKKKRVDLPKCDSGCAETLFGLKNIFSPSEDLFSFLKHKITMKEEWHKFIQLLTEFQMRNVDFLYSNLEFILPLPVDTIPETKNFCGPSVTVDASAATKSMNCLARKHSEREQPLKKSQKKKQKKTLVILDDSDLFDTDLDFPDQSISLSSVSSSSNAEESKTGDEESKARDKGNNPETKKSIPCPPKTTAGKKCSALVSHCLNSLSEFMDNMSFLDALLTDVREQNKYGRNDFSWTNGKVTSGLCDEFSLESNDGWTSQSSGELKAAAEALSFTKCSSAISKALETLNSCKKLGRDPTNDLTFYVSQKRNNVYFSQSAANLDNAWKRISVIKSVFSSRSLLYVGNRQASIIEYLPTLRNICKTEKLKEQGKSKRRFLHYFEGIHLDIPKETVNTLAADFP
UniProt P21953: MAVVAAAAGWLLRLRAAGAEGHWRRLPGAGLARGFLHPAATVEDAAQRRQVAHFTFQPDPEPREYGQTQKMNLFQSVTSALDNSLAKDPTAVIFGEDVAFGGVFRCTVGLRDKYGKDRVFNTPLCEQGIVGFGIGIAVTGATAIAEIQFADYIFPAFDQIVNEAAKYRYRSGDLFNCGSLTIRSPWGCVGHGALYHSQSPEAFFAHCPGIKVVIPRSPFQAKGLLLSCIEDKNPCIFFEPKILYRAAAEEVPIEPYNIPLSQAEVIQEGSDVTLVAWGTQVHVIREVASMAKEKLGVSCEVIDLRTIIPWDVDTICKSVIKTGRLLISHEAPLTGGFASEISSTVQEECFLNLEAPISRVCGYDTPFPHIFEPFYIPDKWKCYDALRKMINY
UniProt Q6QNY1, 13-42: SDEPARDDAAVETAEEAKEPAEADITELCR
UniProt Q9UL15, 308-329: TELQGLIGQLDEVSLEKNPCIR
UniProt Q9UIG0: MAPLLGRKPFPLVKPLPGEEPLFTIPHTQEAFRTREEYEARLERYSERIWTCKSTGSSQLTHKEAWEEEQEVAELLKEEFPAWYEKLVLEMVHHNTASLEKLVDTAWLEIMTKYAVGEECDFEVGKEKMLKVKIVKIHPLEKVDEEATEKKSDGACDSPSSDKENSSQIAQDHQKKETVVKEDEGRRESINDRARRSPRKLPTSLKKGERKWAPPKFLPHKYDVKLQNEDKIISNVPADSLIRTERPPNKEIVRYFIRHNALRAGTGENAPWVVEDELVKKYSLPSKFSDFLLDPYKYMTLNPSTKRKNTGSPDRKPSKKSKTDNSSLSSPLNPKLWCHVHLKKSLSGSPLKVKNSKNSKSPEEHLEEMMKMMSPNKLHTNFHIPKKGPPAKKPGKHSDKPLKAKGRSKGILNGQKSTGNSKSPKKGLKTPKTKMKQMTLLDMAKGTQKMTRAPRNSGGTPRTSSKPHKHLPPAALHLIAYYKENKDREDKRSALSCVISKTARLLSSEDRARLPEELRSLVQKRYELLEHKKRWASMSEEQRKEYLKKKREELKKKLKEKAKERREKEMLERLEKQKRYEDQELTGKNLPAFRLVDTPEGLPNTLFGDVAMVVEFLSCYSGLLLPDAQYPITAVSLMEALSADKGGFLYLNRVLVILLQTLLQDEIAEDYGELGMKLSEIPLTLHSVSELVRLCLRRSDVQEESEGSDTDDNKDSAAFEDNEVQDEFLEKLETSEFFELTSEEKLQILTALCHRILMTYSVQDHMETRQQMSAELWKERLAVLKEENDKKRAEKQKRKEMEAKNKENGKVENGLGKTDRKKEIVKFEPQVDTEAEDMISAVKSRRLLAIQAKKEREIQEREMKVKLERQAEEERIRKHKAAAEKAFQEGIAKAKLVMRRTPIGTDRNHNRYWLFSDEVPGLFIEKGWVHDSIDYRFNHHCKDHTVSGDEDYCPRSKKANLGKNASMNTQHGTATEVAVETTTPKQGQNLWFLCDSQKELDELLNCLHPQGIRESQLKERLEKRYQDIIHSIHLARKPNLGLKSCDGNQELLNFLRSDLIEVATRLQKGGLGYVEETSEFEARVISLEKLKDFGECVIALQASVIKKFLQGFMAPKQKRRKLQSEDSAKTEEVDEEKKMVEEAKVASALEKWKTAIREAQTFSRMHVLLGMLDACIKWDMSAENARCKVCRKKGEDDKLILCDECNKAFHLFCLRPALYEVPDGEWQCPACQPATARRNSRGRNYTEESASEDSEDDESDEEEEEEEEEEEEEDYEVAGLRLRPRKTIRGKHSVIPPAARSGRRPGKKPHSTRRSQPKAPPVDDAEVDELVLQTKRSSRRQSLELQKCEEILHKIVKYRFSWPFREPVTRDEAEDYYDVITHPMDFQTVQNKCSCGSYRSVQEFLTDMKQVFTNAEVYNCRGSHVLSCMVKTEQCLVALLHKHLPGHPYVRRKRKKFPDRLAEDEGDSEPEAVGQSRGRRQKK
UniProt O00512, 112-132: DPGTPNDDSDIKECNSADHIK
UniProt O75934: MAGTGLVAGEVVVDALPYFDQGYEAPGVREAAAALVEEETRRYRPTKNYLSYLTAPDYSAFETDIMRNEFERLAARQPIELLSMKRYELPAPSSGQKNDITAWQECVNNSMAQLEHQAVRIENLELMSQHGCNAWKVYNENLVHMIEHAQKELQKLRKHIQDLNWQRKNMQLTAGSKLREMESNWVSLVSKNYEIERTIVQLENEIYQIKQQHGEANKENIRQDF
UniProt Q9H6U6, 255-274: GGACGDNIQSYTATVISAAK
UniProt O14965: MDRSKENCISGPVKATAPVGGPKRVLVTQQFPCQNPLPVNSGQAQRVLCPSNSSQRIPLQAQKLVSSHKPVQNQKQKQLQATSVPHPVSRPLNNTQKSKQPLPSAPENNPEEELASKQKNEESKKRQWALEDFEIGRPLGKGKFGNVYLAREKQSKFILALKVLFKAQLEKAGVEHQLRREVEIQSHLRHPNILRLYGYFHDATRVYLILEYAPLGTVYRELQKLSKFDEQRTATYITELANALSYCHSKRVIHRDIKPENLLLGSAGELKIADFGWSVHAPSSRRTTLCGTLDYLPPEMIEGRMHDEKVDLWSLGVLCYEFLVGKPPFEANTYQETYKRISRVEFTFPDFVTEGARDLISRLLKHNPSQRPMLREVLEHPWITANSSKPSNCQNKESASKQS
UniProt Q8N5M1: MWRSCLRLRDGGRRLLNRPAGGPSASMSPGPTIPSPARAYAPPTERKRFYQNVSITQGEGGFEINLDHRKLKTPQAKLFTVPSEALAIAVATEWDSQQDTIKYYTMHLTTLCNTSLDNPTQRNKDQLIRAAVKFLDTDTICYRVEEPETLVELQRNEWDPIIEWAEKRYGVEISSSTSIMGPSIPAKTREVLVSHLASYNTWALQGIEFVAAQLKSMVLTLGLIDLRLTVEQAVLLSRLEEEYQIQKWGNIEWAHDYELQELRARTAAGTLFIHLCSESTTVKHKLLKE

compound: ClCC(=O)N[C@@H]1CCCc2ccccc12; assay: log2 mean competition ratio of IA-DTB cysteine labelling (DMSO/compound) (log2 ratio); higher = stronger cysteine engagement by compound; conditions: 50 µM; treatment time: 4 h; cell line lysate: HEK293T
Description: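 IA-DTB competitive cysteine chemoproteomics in HEK293T RIPA lysate. Lysates were treated with compound 29 or 30 at 50 or 200 µM for 4 h, then IA-DTB (500 µM, 1 h), trypsin-digested, NeutrAvidin-enriched and analysed by diaPASEF. Competition ratio = intensity DMSO / intensity compound (n=4 treated, n=64 DMSO); binding: mean log2 CR ≥ 1 and p ≤ 0.05 plus QC filters. Target is the cysteine site.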

Row | Target | log2 mean competition ratio
1 | BBX C870 (UniProt Q8WY36) | -0.359
2 | ATXN2 C892 | 0.153
3 | BAG1 C213 (UniProt Q99933) | -0.0997
4 | BMS1 C101 (UniProt Q14692) | 0.0552
5 | ATP2A2 C997 (UniProt P16615) | -0.0969
6 | ATG7 C298 (UniProt O95352) | -0.254
7 | ATAD3B C492 (UniProt Q5T9A4) | 0.182
8 | BIRC6 C752 | -0.00703
9 | BCL2L12 C266 (UniProt Q9HB09) | 0.119
10 | AZI2 C332 (UniProt Q9H6S1) | 0.0983
11 | ATE1 C138 (UniProt O95260) | -0.177
12 | ATAD5 C433 (UniProt Q96QE3) | 0.163
13 | ATAD2 C1246 (UniProt Q6PL18) | -0.275
14 | BCKDHB C316 (UniProt P21953) | 0.0721
15 | BLOC1S2 C41 (UniProt Q6QNY1) | -0.364
16 | ATP2A3 C447 (UniProt Q93084) | -0.417
17 | ATAD5 C1430 (UniProt Q96QE3) | -0.157
18 | ATF7IP C451 (UniProt Q6VMQ6) | 0.285

Row | Target | log2 mean competition ratio
19 | BBX C599 (UniProt Q8WY36) | 0.0492
20 | BAG5 C327 (UniProt Q9UL15) | -0.104
21 | BAZ1B C1045 (UniProt Q9UIG0) | 0.316
22 | BCL9 C125 (UniProt O00512) | -0.371
23 | BCAS2 C132 (UniProt O75934) | 0.392
24 | BCAS3 C258 (UniProt Q9H6U6) | 0.0798
25 | BCKDHB C299 (UniProt P21953) | -0.327
26 | AURKA C290 (UniProt O14965) | 0.306
27 | ATRX C450 (UniProt P46100) | 0.242
28 | ASXL2 C827 (UniProt Q76L83) | 0.291
29 | BIRC6 C1293 | 0.0339
30 | ATR C753 (UniProt Q13535) | -0.0739
31 | ATPAF2 C141 (UniProt Q8N5M1) | -0.0935
32 | BANP C48 (UniProt Q8N9N5) | 0.0713
33 | BBS7 C167 (UniProt Q8IWZ6) | 0.0149
34 | ATP2A2 C669 (UniProt P16615) | -0.133
35 | ASPSCR1 C48 (UniProt Q9BZE9) | -0.189
36 | BCOR C1080 (UniProt Q6W2J9) | -0.105

same assay, conditions: 200 µM; treatment time: 4 h; cell line lysate: HEK293T

Row | Target | log2 mean competition ratio
37 | BBX C870 (UniProt Q8WY36) | 0.281
38 | ATXN2 C892 | -0.295
39 | BAG1 C213 (UniProt Q99933) | -0.00633
40 | BMS1 C101 (UniProt Q14692) | -0.0404
41 | ATP2A2 C997 (UniProt P16615) | -0.0826
42 | ATG7 C298 (UniProt O95352) | -0.002
43 | ATAD3B C492 (UniProt Q5T9A4) | 0.376
44 | BIRC6 C752 | 0.157
45 | BCL2L12 C266 (UniProt Q9HB09) | -0.0413
46 | AZI2 C332 (UniProt Q9H6S1) | 0.192
47 | ATE1 C138 (UniProt O95260) | -0.365
48 | ATAD5 C433 (UniProt Q96QE3) | -0.0919
49 | ATAD2 C1246 (UniProt Q6PL18) | 0.00722
50 | BCKDHB C316 (UniProt P21953) | -0.286
51 | BLOC1S2 C41 (UniProt Q6QNY1) | 0.0392
52 | ATP2A3 C447 (UniProt Q93084) | -0.0442
53 | ATAD5 C1430 (UniProt Q96QE3) | 0.215
54 | ATF7IP C451 (UniProt Q6VMQ6) | 0.0253

Row | Target | log2 mean competition ratio
55 | BBX C599 (UniProt Q8WY36) | -0.202
56 | BAG5 C327 (UniProt Q9UL15) | 0.21
57 | BAZ1B C1045 (UniProt Q9UIG0) | -0.131
58 | BCL9 C125 (UniProt O00512) | 0.197
59 | BCAS2 C132 (UniProt O75934) | -0.0583
60 | BCAS3 C258 (UniProt Q9H6U6) | -0.266
61 | BCKDHB C299 (UniProt P21953) | -0.211
62 | AURKA C290 (UniProt O14965) | -0.134
63 | ATRX C450 (UniProt P46100) | -0.317
64 | ASXL2 C827 (UniProt Q76L83) | 0.0324
65 | BIRC6 C1293 | -0.064
66 | ATR C753 (UniProt Q13535) | -0.011
67 | ATPAF2 C141 (UniProt Q8N5M1) | -0.0583
68 | BANP C48 (UniProt Q8N9N5) | -0.0796
69 | BBS7 C167 (UniProt Q8IWZ6) | 0.215
70 | ATP2A2 C669 (UniProt P16615) | 0.0568
71 | ASPSCR1 C48 (UniProt Q9BZE9) | -0.0426
72 | BCOR C1080 (UniProt Q6W2J9) | -0.0696
